Experimental data as given in PubChem BioAssay AID493014 (National Center for Advancing Translational Sciences (NCATS), 2011).
Out of some 340,000 compounds screened, about 170 (0.05%) were called active. Inconclusive means that the source gave no clear call. Such entries were picked first, then a sample of the others. Calls come from the whole dose curve; as a rule, active = well fitted inhibition curve with a large enough effect in the signal ratio, with a control signal flat (not every such curve was filed as active); inconclusive = small, poorly fitted or top-dose-only effect, or effect the other way, or a change in a side signal; inactive = flat fitted curve, though single readings scatter; the % refers to the signal ratio. A potency beside an inconclusive call is a rough fit, not a confirmed value.

Assay: qHTS Assay to Find Inhibitors of Chronic Active B-Cell Receptor Signaling;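 for activity change, negative = inhibition: plate controls were basal doxycycline-induced cells for no effect and cells given 10 µM MG132 for full effect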
Conditions: ABC-DLBCL IkBa-CBG/CBR reporter, luminescence ratio (green luciferase fused to IkBa over red control in TMD8 lymphoma cells), 4 h; activity change, negative = inhibition: at 46.1 µM (top of the series)
In short: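 Compounds up to 46 uM were incubated four hours with TMD8 cells whose green CBG68 luciferase is fused to IkappaBalpha; red CBR luminescence normalised the signal, and concentration-effect curves were fitted to fusion, red and ratio data.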
Potency is the fitted concentration of half-maximal effect.

Structure (SMILES) | Potency | activity change, negative = inhibition
O=C(NNC(=S)NC(=O)c1cccc([N+](=O)[O-])c1)c1ccc(O)cc1 | inconclusive: 7.94 µM [falling, partial curve] | –
Cc1nc2nc(SCC(=O)c3cccc([N+](=O)[O-])c3)[nH]c2cc1Br | – | inconclusive: -11%
CSc1ccc(Cl)c(C(=O)OCC(=O)N2CCN(C(=O)c3ccco3)CC2)c1 | – | inconclusive: -0.135%
Cc1ccccc1/C=N/N1C(=O)CSC1=S | – | inactive
COc1cc(C(C)=O)ccc1OC(C)C(=O)Nc1ccc(S(=O)(=O)N2CCCC2)cc1 (centres undefined) | – | inconclusive: 2.43%
COc1ccc(Cc2nc(C(=O)Nc3ccccc3)cs2)cc1 | – | inactive
CCn1c(C(=O)N2CCCC(C(=O)NCCc3ccc(C)cc3)C2)cc2sccc21 (centres undefined) | – | inconclusive: -1.5%
Cc1ccc(-c2nnn(Cc3nc4ccccc4s3)n2)cc1 | – | inconclusive: 3.79%
COc1ccc(Nc2nc(Cl)nc(Nc3ccc(OC)cc3)n2)cc1 | – | inconclusive: 17.5%
NC(=S)N/N=C/c1coc2cc(Br)ccc2c1=O | inconclusive: 6.31 µM [rising, full curve] | –
CCN(C(=O)CSc1nc2ccccc2c(=O)n1-c1ccccc1F)C1CCS(=O)(=O)C1 (centres undefined) | – | inconclusive: 1.49%
Cc1cc(C)c2nc(Nc3nc(-c4ccccc4)cc(=O)[nH]3)nc(C)c2c1 | inconclusive: 31.6 µM [falling, single point] | –
COc1ccc(CCNC(=O)CCS(=O)(=O)Cc2ccccc2C)cc1OC | – | inconclusive: 2.74%
C=CCNC(=S)N/N=C(\C)c1cccnc1 | inconclusive: 35.5 µM [cytotoxic, single point] | –
CCOC(=O)c1ccc(N2CCCCC2)c(NS(=O)(=O)c2ccc(C)cc2)c1 | inconclusive: 22.4 µM [falling, single point] | –
CCN(CC)S(=O)(=O)c1cc(NS(=O)(=O)c2cccc(Cl)c2Cl)ccc1C | – | inconclusive: 17.6%
Cc1nn(-c2ccccc2)cc1/C=N/NC(=O)c1cccs1 | – | inactive
O=C(NCc1ccc(Cl)cc1)c1noc2c1CCCC2 | – | inconclusive: -1.52%
COc1ccc(NC(=O)CC2C(=O)NCCN2C(=O)Nc2ccc(C(F)(F)F)cc2)cc1 (centres undefined) | – | inconclusive: -17%
CC(=O)c1ccc(Sc2ccccn2)c([N+](=O)[O-])c1 | – | inconclusive: 2.6%
CCCCC/C=C/C1=CC(=O)C[C@H](c2ccc(OC)cc2)C1 | – | inconclusive: 8.36%

An excerpt of these results, tab-delimited:
Structure (SMILES)	Potency	activity change, negative = inhibition
COc1ccc(Nc2nc(Cl)nc(Nc3ccc(OC)cc3)n2)cc1	–	inconclusive: 17.5%
NC(=S)N/N=C/c1coc2cc(Br)ccc2c1=O	inconclusive: 6.31 µM [rising, full curve]	–
CCN(C(=O)CSc1nc2ccccc2c(=O)n1-c1ccccc1F)C1CCS(=O)(=O)C1 (centres undefined)	–	inconclusive: 1.49%
Cc1cc(C)c2nc(Nc3nc(-c4ccccc4)cc(=O)[nH]3)nc(C)c2c1	inconclusive: 31.6 µM [falling, single point]	–
COc1ccc(CCNC(=O)CCS(=O)(=O)Cc2ccccc2C)cc1OC	–	inconclusive: 2.74%

(list continues)

Structure (SMILES) | Potency | activity change, negative = inhibition
O=C1/C(=C/c2ccncc2)SC(=S)N1Cc1ccccc1 | inconclusive: 22.4 µM [falling, single point] | –
O=C(CSc1nc2ccc(NC(=O)CSc3nnnn3-c3ccccc3)cc2s1)Nc1ccccc1 | – | inactive
O=C(NNC(=O)c1cc(-c2ccncc2)nc2ccccc12)c1ccccc1O | inconclusive: 18.4 µM [falling, single point] | –
CNS(=O)(=O)c1ccc(C(=O)NCC(=O)NC(C)c2cccs2)cc1 (centres undefined) | – | inactive
O=C(Nc1ccc2ccccc2n1)c1ccc(Cl)cc1 | inconclusive: 22.4 µM [falling, single point] | –
CC1=CCC2C(=O)N(c3cc(C)on3)C(=O)C2C1 (centres undefined) | inconclusive: 4.11 µM [falling, single point] | –
CCOc1ccc(NC(=O)CN(C)C(=O)c2cn(-c3ccc(F)cc3)nc2-c2cccc(OC)c2)cc1OCC | – | inactive
Cn1cnnc1SC(C(=O)Nc1ccc(F)cc1)c1ccccc1 (centres undefined) | – | inconclusive: 2.3%
Cc1ccnc(SCC(=O)NC2CC2)n1 | – | inactive
CCOc1ccc(C(C)=O)cc1Cn1c(=O)oc2ccccc21 | inconclusive: 15.8 µM [falling, single point] | –
CC(=O)c1ccn(S(=O)(=O)c2ccccc2)c1 | – | inactive
NC(=O)COC(=O)c1ccc(Cl)c(S(=O)(=O)N2CCN(c3ccc(F)cc3)CC2)c1 | inconclusive: 35.5 µM [falling, single point] | –
CC(C)CNC(=O)COc1ccc2c3c(c(=O)oc2c1)CCC3 | – | inconclusive: 11.3%
OC(C[n+]1ccccc1)c1ccccc1 (centres undefined) | – | inconclusive: 0.336%
Cc1cnc(NC(=O)CCCSc2nc3ccccc3s2)s1 | inconclusive: 2.24 µM [rising, full curve, poor fit] | –
Cc1cccc(C)c1OCc1nc2ccccc2c(=O)n1/N=C/c1c[nH]c2ccccc12 | inconclusive: 18.4 µM [rising, partial curve, poor fit] | –
CCOC(=O)c1oc2ccccc2c1NC(=O)CCl | – | inconclusive: -10.1%
O=C(Nc1ccc2c(c1)OCO2)Nc1ccccc1F | inconclusive: 35.5 µM [rising, partial curve] | –
Cc1cccc(NC(=S)NCc2ccc(F)cc2)c1C | – | inactive
Nc1c(-c2ccccn2)cnn1-c1nc(-c2ccc(F)cc2)cs1 | – | inconclusive: 4.89%
N=c1n(CCN2CCCC2)c2ccccc2n1CC(O)c1ccc(Cl)c(Cl)c1 (centres undefined) | inconclusive: 35.5 µM [falling, single point] | –

Structure (SMILES) | Potency | activity change, negative = inhibition
Cc1ccc(S(=O)(=O)N(c2cccc(C)c2)C2CCS(=O)(=O)C2)cc1 (centres undefined) | – | inconclusive: -6.5%
CCc1nnc(NC(=O)CSc2nnc(-c3ccc(S(=O)(=O)N(CC)CC)cc3)n2CC)s1 | – | inconclusive: -15.2%
CCN(C(=O)COC(=O)CSc1ccc([N+](=O)[O-])cc1)C1CCS(=O)(=O)C1 (centres undefined) | – | inactive
CC(C)NC(=O)Cn1c(=O)c2c(ncn2Cc2ccccc2)n(Cc2ccccc2)c1=O | inconclusive: 20.6 µM [falling, single point] | –
Cc1ccc(CCN2CC(C(=O)NCCN(C)C)CC2=O)cc1 (centres undefined) | inconclusive: 3.16 µM [falling, full curve, poor fit] | –
CCC1(c2ccc(Cl)cc2)NC(=S)N(c2ccc(C)cc2)N1 (centres undefined) | – | inconclusive: 7.69%
CNc1ccc(/C=C2\CSc3ccccc3C2=O)cc1[N+](=O)[O-] | inconclusive: 3.55 µM [falling, single point] | –
Cc1onc(C(=O)N2CCC(Cc3ccccc3)CC2)c1[N+](=O)[O-] | – | inconclusive: -2.35%
COc1ccc([C@H]2Cc3cccc(O)c3C(=O)O2)cc1O | – | inactive
Cc1ccc(NC(=O)c2ccc(N3C(=O)C4CC=C(Cl)CC4C3=O)cc2)cc1 (centres undefined) | inconclusive: 3.26 µM [rising, full curve] | –
O=C(c1ccc(Cl)cc1)N1CCC(O)(CSc2ccc(Cl)cc2)CC1 | – | inconclusive: 8.37%
O=C(CC(NC(=O)c1ccccc1Cl)c1ccccc1)Nc1ccc2c(c1)OCO2 (centres undefined) | – | inconclusive: -0.71%
CCOC(=O)c1cc(C)nc(N2CCCCC2)c1C#N | – | inconclusive: 17.9%
CN1CCN(CCCNCc2cn(CCC#N)c3ccccc23)CC1 | – | inconclusive: -1.81%
O=C(CSCc1cc(=O)n2nc(C3CC3)sc2n1)Nc1ccc(F)cc1 | – | inconclusive: -16.1%
Cc1cccc(-n2nc3c(c2NC(=O)C2CC2)CS(=O)(=O)C3)c1C | – | inactive
Cc1cccc(OCC(=O)NCc2ccc3c(c2)CCN3C(=O)c2ccccc2)c1 | – | inactive
CCc1nc(N)c(C#N)c(-c2cccc3ccccc23)c1C | – | inactive
COc1ccc(C(=O)NCCSCc2ccco2)cc1OC | – | inactive
O=C(c1ccc(F)cc1)C1CCN(Cc2ccc(F)cc2)CC1 | – | inactive
Cc1ccc2cc3cc(C(=O)NCCN4CCOCC4)oc3nc2c1 | – | inconclusive: 20%

Structure (SMILES) | Potency | activity change, negative = inhibition
COc1cccc(Cn2c(=O)ccc3ccccc32)c1 | inconclusive: 35.5 µM [falling, single point] | –
COc1ccccc1Cn1[nH]nnc1=S | – | inactive
O=S(=O)(Cc1ccccc1)N1CCN(Cc2ccccc2)CC1 | – | inconclusive: 2.95%
Cc1ccc(C)c(NC(=O)CCN2CCN(c3ccccc3F)CC2)c1 | – | inactive
O=[N+]([O-])c1ccc(C2CCCC/C2=N/OCc2ccccc2F)c([N+](=O)[O-])c1 (centres undefined) | inconclusive: 17.8 µM [rising, single point] | –
CCCCCc1ccc(-c2ccc(OCC)cc2)nc1 | – | inconclusive: 16.8%
COc1ccc(Br)cc1C(=O)Nc1ccc(NC(=O)c2ccco2)cc1 | inconclusive: 8.2 µM [rising, single point] | –
CCNC(=S)/C(=C(/[O-])c1ccc([N+](=O)[O-])cc1)[n+]1ccccc1 | – | inactive
O=C(Nc1nnc(S(=O)(=O)N2CCCC2)s1)c1ccccc1Cl | – | inconclusive: 17.8%
COc1cc(C2Oc3cc(C4Oc5cc(O)cc(O)c5C(=O)C4O)ccc3OC2CO)ccc1O (centres undefined) | – | inactive
COC(=O)c1ccc2c(=O)[nH]c(COC(=O)c3c(-c4ccccc4)noc3C)nc2c1 | – | inactive
Cc1nc2ccc(Br)cc2c2c1CC(CBr)O2 (centres undefined) | – | inactive
COc1ccccc1C(=O)c1nc2ccccc2n1C | – | inactive
COCCNC(=O)CSc1nc2scc(-c3ccccc3)c2c(=O)[nH]1 | – | inconclusive: 0.701%
COc1ccc(OCc2cc(C(=O)NC3CCc4ccccc43)no2)c(Cl)c1 (centres undefined) | inconclusive: 22.4 µM [falling, single point] | –
O=C(Nc1ccc(-c2nc3ccccc3s2)cc1)C1=COCCO1 | – | inconclusive: 5.77%
CS(=O)(=O)c1ccc2nc(NC(=O)c3ccco3)sc2c1 | inconclusive: 29.1 µM [falling, single point] | –
COc1ccc2nc(N(Cc3cccnc3)C(=O)c3ccco3)sc2c1 | – | inactive
O=S(=O)(c1cc(Cl)ccc1Cl)N1CCCC1 | – | inconclusive: -27.1%
COc1ccc(N2CCN(c3nc4c(C)cccn4c(=O)c3/C=C(\C#N)C(N)=O)CC2)cc1 | – | inconclusive: -3.33%
C=CCSc1nc(N)c(C(=O)Nc2ccccc2C)cc1C(N)=O | – | inconclusive: -23.3%
